Measured values taken from patent US6517846B2, “Cosmetic composition” (Kyowa Hakko Kogyo Co., Ltd., priority 2000, dated 2003).
Where a name gives a salt, the structure may show the parent alone.

Test system: human subjects (washing hands)
Details: mean n = 5; for Foaming power (during use), average score: grades 1-5 scored −5, −1.5, 0, 1.5, 5, 1 Very little; for Foaming power (during use), average score / Foam breakage (after use), average score: 5 Excellent; for Feeling after use, average score / Wash feeling (during use), average score / Satisfaction rating, average score / Texture in foams (during use), average score / Feeling of foams (during use), average score / Foam breakage (after use), average score / Odor (after use), average score / Odor (during use), average score: grades scored −5 to 5; for Feeling after use, average score: 1 Dry, 5 Moist; for Wash feeling (during use), average score: 1 Frictional, 5 Smooth; for Satisfaction rating, average score: 1 Not preferred for use, 5 Preferred for use; for Texture in foams (during use), average score: 1 Rough, 5 Very fine; for Feeling of foams (during use), average score: 1 Soft (Light), 5 Creamy (Heavy); for Foam breakage (after use), average score: 1 Unsatisfactory; for Odor (after use), average score / Odor (during use), average score: 1 Very strong, 5 Very light

Compound	Foaming power (during use), average score	Feeling after use, average score	Wash feeling (during use), average score	Satisfaction rating, average score	Texture in foams (during use), average score	Feeling of foams (during use), average score	Foam breakage (after use), average score	Odor (after use), average score	Odor (during use), average score
CCCCCCCCCCCC(=O)NCCC(=O)O [LBA, sodium salt of lauroyl β-alanine]	−2.4	0.6	0.6	−0.6	−2.4	−1.8	−1.2	1.2	−1.2
Triethanolamine N-Cocoyl-L-glutaminate [GMT]	1.5	−0.9	1.8	0	−0.3	−1.2	−0.6	1.2	0.9
triethanolamine N-cocoyl glutamate [GAT]	2.4	0	1.2	−1.2	1.5	0.6	1.2	−1.8	−1.8
